Measurements as given in PubChem BioAssay AID222 (DTP/NCI, 2004).
The list does not hold the whole screen: it gathers tests that were run many times, whatever their T/C, doses with no T/C, and many T/C values between a quarter and a half above the control. Further doses and runs are listed elsewhere. T/C gives the treated animals as a percentage of the vehicle group. Some doses have a count of surviving animals in place of a T/C: the source holds a T/C of zero for them, seemingly a mark for toxic or unscored doses. Some doses without a T/C left all or most animals alive at the check, yet need not have been tolerated: survival well below the control is almost never listed, so the zero probably covers shortened survival too. Counts of survivors are from the toxicity check (mostly the fifth day) where no day follows; animals may have died later. Schedule codes are those of the source, taken here to give the interval after Q, in days (D) or hours (H), and the number of doses after X. Some doses were run more than once; the values are given in rising order. Some schedules carry Z or #; the key to these is not given. Where survival is the endpoint, this PubChem deposit counts one and a half times the control or more as active, and values a quarter to a half above the control carry no call in these data; other NCI protocols may use other cut-offs. Some T/C values are followed by the survivors on the day toxicity was checked, most often the fifth; where none is given, no animal had died by that day. Signs of the kind (2×) say how often a value occurs here.

System: C57BL/6 mice, intracerebral ependymoblastoma, median survival T/C
Experiment: NCI In Vivo Anticancer Drug Screen. Data for tumor model Ependymoblastoma (intracerebral) in C57BL/6 mice
Settings: T/C endpoint: median survival time, higher T/C = longer survival
Procedure: The antitumor activity of compounds was measured in mice bearing transplantable tumors. Survival or tumor size were measured and the results are expressed as the measurement made in the treated group (T) divided by the measurement made in the vehicle treated control group (C). The tumor model used in this assay is Ependymoblastoma (intracerebral) in C57BL/6 mice

[1] = dose: 16.0 mg/kg/injection, schedule: Q01DX005 (ip), vehicle: saline
[2] = dose: 32.0 mg/kg/injection, schedule: Q01DX005 (ip), vehicle: saline
[3] = dose: 64.0 mg/kg/injection, schedule: Q01DX005 (ip), vehicle: saline
[4] = dose: 128.0 mg/kg/injection, schedule: Q01DX001 (ip), vehicle: saline
[5] = dose: 128.0 mg/kg/injection, schedule: Q01DX005 (ip), vehicle: saline
[6] = dose: 128.0 mg/kg/injection, schedule: Q01DX005 (ip), vehicle: saline with Tween-80

COc1cc2cc3c4cc(OC)c(OC)cc4cc[n+]3c(C)c2cc1OC (tested in a mixture with another compound)
T/C [1]: 86, 96, 101 [9 of 10 alive], 102, 103, 112 % of control | T/C (dose: 32.0 mg/kg/injection, schedule: Q01DX005 (ip), vehicle: Klucel (hydroxypropylcellulose) (HPC)): 133 % of control | T/C [2]: 95, 98, 103, 108, 116 % of control (2×) | T/C (dose: 64.0 mg/kg/injection, schedule: Q01DX001 (ip), vehicle: saline): 91, 96 [9 of 10 alive], 100, 101 % of control [7 of 10 alive] | T/C [3]: 100, 104, 107, 109, 111, 119 % of control | T/C (dose: 64.0 mg/kg/injection, schedule: Q#A X002 (ip), vehicle: saline): 132 % of control [9 of 10 alive] | T/C [4]: 93, 94 [6 of 10 alive], 105 % of control [9 of 10 alive] | survivor count [4]: 8 of 10 | T/C [5]: 103 % of control [9 of 10 alive] | survivor count [5]: 8 of 10, 9 of 10, 10 of 10 | survivor count (dose: 256.0 mg/kg/injection, schedule: Q01DX001 (ip), vehicle: saline): 8 of 10 and 10 of 10 | survivor count (dose: 256.0 mg/kg/injection, schedule: Q01DX005 (ip), vehicle: Klucel (hydroxypropylcellulose) (HPC)): 8 of 10 | survivor count (dose: 256.0 mg/kg/injection, schedule: Q01DX005 (ip), vehicle: saline): 0 of 10, 2 of 10, 3 of 10 | survivor count (dose: 512.0 mg/kg/injection, schedule: Q01DX001 (ip), vehicle: saline): 1 of 10 and 2 of 10 | survivor count (dose: 512.0 mg/kg/injection, schedule: Q01DX005 (ip), vehicle: Klucel (hydroxypropylcellulose) (HPC)): 0 of 10 and 6 of 10 | survivor count (dose: 512.0 mg/kg/injection, schedule: Q#A X002 (ip), vehicle: saline): 2 of 10 | survivor count (dose: 1024.0 mg/kg/injection, schedule: Q01DX001 (ip), vehicle: saline): 0 of 10 and 1 of 10

CO[C@H]1C[C@@H]2CC[C@@H](C)[C@@](O)(O2)C(=O)C(=O)N2CCCC[C@H]2C(=O)O[C@H]([C@H](C)C[C@@H]2CC[C@@H](O)[C@H](OC)C2)CC(=O)[C@H](C)C=C(C)[C@@H](O)[C@@H](OC)C(=O)[C@H](C)C[C@H](C)/C=C/C=C/C=C1C
T/C (dose: 3.12 mg/kg/injection, schedule: Q01DX009 (ip), vehicle: clinical formulation): 138 % of control | T/C (dose: 6.25 mg/kg/injection, schedule: Q01DX009 (ip), vehicle: clinical formulation): 133 % of control | T/C (dose: 12.5 mg/kg/injection, schedule: Q01DX009 (ip), vehicle: clinical formulation): 146 % of control | T/C (dose: 12.5 mg/kg/injection, schedule: Q01DX009 (ip), vehicle: saline with Tween-80): 136 % of control | T/C (dose: 25.0 mg/kg/injection, schedule: Q01DX009 (ip), vehicle: clinical formulation): 144 % of control | T/C (dose: 25.0 mg/kg/injection, schedule: Q01DX009 (ip), vehicle: saline with Tween-80): 130 % of control | T/C (dose: 50.0 mg/kg/injection, schedule: Q01DX009 (ip), vehicle: clinical formulation): 148 % of control [8 of 9 alive] | T/C (dose: 50.0 mg/kg/injection, schedule: Q01DX009 (ip), vehicle: saline with Tween-80): 125 % of control [8 of 10 alive] | survivor count (dose: 100.0 mg/kg/injection, schedule: Q01DX009 (ip), vehicle: clinical formulation): 9 of 10 | survivor count (dose: 200.0 mg/kg/injection, schedule: Q01DX009 (ip), vehicle: clinical formulation): 4 of 10

COS(C)(=O)=O
T/C [2]: 145 % of control | survivor count [3]: 10 of 10 | survivor count [5]: 0 of 10

CCC(=O)O[C@H]1CC[C@H]2[C@@H]3CCC4=CC(=O)CC[C@]4(C)[C@H]3CC[C@]12C
survivor count [5]: 10 of 10

COc1cc([C@@H]2c3cc4c(cc3[C@@H](OC3OC5CO[C@@H](c6cccs6)OC5C(O)C3O)[C@H]3COC(=O)[C@H]23)OCO4)cc(OC)c1O (some centres not stated)
survivor count (dose: 2.0 mg/kg/injection, schedule: Q01DX005 (oral), vehicle: saline): 10 of 10

CCN(CC)c1ccc2cc3ccc(=[N+](CC)CC)cc-3oc2c1
survivor count [1]: 5 of 10 | survivor count [2]: 0 of 10

O=S(=O)(O)O
survivor count [6]: 3 of 10

O=C(NP(=O)(N1CC1)N1CC1)c1cc(I)ccc1I
survivor count (dose: 32.0 mg/kg/injection, schedule: Q01DX005 (ip), vehicle: saline with Tween-80): 9 of 10 | T/C [2]: 132 % of control | survivor count (dose: 64.0 mg/kg/injection, schedule: Q01DX005 (ip), vehicle: Klucel (hydroxypropylcellulose) (HPC)): 10 of 10 | survivor count (dose: 64.0 mg/kg/injection, schedule: Q01DX005 (ip), vehicle: saline with Tween-80): 10 of 10 | survivor count (dose: 128.0 mg/kg/injection, schedule: Q01DX005 (ip), vehicle: Klucel (hydroxypropylcellulose) (HPC)): 9 of 10 | survivor count [6]: 9 of 10 | survivor count [5]: 10 of 10

Nc1nncs1
survivor count (dose: 30.0 mg/kg/injection, schedule: Q01DX009 (ip), vehicle: Klucel (hydroxypropylcellulose) (HPC)): 10 of 10 | survivor count (dose: 60.0 mg/kg/injection, schedule: Q01DX009 (ip), vehicle: Klucel (hydroxypropylcellulose) (HPC)): 10 of 10 | survivor count (dose: 120.0 mg/kg/injection, schedule: Q01DX009 (ip), vehicle: Klucel (hydroxypropylcellulose) (HPC)): 6 of 10 | survivor count [6]: 10 of 10 | survivor count (dose: 240.0 mg/kg/injection, schedule: Q01DX009 (ip), vehicle: Klucel (hydroxypropylcellulose) (HPC)): 2 of 10 | survivor count (dose: 256.0 mg/kg/injection, schedule: Q01DX005 (ip), vehicle: saline with Tween-80): 10 of 10 | survivor count (dose: 512.0 mg/kg/injection, schedule: Q01DX005 (ip), vehicle: saline with Tween-80): 10 of 10

COc1cc(NS(C)(=O)=O)ccc1Nc1c2ccccc2nc2ccccc12
survivor count (dose: 4.0 mg/kg/injection, schedule: Q01DX005 (ip), vehicle: Klucel (hydroxypropylcellulose) (HPC)): 10 of 10 | survivor count (dose: 4.0 mg/kg/injection, schedule: Q01DX005 (ip), vehicle: saline + alcohol): 10 of 10 | survivor count (dose: 8.0 mg/kg/injection, schedule: Q01DX005 (ip), vehicle: Klucel (hydroxypropylcellulose) (HPC)): 10 of 10 | survivor count (dose: 8.0 mg/kg/injection, schedule: Q01DX005 (ip), vehicle: saline + alcohol): 9 of 10 and 10 of 10 | survivor count (dose: 8.0 mg/kg/injection, schedule: Q01DX005 (ip), vehicle: water): 10 of 10 | survivor count (dose: 16.0 mg/kg/injection, schedule: Q01DX005 (ip), vehicle: Klucel (hydroxypropylcellulose) (HPC)): 8 of 10 and 10 of 10 | survivor count (dose: 16.0 mg/kg/injection, schedule: Q01DX005 (ip), vehicle: saline + alcohol): 5 of 10 and 10 of 10 | survivor count (dose: 16.0 mg/kg/injection, schedule: Q01DX005 (ip), vehicle: water): 10 of 10 | survivor count (dose: 16.0 mg/kg/injection, schedule: Q#A X002 (ip), vehicle: Klucel (hydroxypropylcellulose) (HPC)): 1 of 10 | survivor count (dose: 64.0 mg/kg/injection, schedule: Q01DX001 (ip), vehicle: Klucel (hydroxypropylcellulose) (HPC)): 8 of 10 and 9 of 10 | survivor count (dose: 128.0 mg/kg/injection, schedule: Q#A X002 (ip), vehicle: Klucel (hydroxypropylcellulose) (HPC)): 0 of 10 | survivor count (dose: 256.0 mg/kg/injection, schedule: Q01DX001 (oral), vehicle: Klucel (hydroxypropylcellulose) (HPC)): 9 of 10 | survivor count (dose: 256.0 mg/kg/injection, schedule: Q#A X002 (ip), vehicle: Klucel (hydroxypropylcellulose) (HPC)): 0 of 10
